The list shows a part of the results.

Sequences of proteins named here, by UniProt entry; tags and fusion partners are left off.
UniProt Q0JBA9, entry or part of it: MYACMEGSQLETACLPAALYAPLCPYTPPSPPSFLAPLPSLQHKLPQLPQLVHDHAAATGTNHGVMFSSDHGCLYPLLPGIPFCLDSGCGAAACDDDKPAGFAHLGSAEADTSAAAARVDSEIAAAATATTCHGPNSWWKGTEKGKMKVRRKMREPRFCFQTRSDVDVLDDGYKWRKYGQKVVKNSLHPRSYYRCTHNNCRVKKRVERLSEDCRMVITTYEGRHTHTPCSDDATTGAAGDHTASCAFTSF

The target in this assay is OsWRKY34 (Oryza sativa, UniProt Q0JBA9 1-250). Nature of the assay: protein-binding microarray (RPBM); PBS, 2% BSA, 51.3 ng/ul salmon testes DNA, 50 uM zinc acetate, 200 nM TF, 25 C, 1 h; high values mean tight binding. The note with it: protein: recombinant; tags: N-terminal polyhistidine and DsRed monomer fusion (pET32a); label: CyDye5-dUTP incorporated in the synthesized complementary strand; 3' TTTTT single-stranded linker to array surface; dsDNA, one strand shown. A digest of the protocol:
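The binding signal is fluorescence intensity per array feature (arbitrary units). Readings came from an Axon 4000B scanner after a washed, 2% BSA-blocked, double-stranded custom Agilent array had been incubated for 1 h at 25 °C with 200 nM protein and 50 µM zinc acetate. The protein was a Ni–NTA-purified transcription factor fused N-terminally to polyhistidine and DsRed, expressed in E. coli BL21-CodonPlus.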
As for “TTGTTTGTAAATATACCGTTTGTCTTTTTTCTGTGAATAACGGAGTCACCTAGTGCAG”, the binding signal is 8360 fluorescence intensity (a.u.).
Turning to “GTGGGTGTTCGCTACAATGCCATTTTCACCATTGGTTGCACGGAGTCACCTAGTGCAG”, the binding signal is 10700 fluorescence intensity (a.u.).
Consider “ATCAACAAGCACGTCTTCTTTTTTTTTGAGAAGCTGACTTCGGAGTCACCTAGTGCAG”, for which the binding signal is 8240 fluorescence intensity (a.u.).
With “CCAATTCCTCTTGTTTCTTTTCAAAAAAGTTTTTTTTTGCCGGAGTCACCTAGTGCAG”, the binding signal was 10000 fluorescence intensity (a.u.).
Take “ACTTGGGTATAATGTGGATATTAACTTTTTATGGTATTAACGGAGTCACCTAGTGCAG”: the binding signal was 10700 fluorescence intensity (a.u.).
As to “TGTTCATTGTCTACTTCTGTAATGTTCTTGAGGGCAAAGGCGGAGTCACCTAGTGCAG”, the binding signal is 8970 fluorescence intensity (a.u.).
Turning to “GAACAAGTTGATGCACTGTTCTGTTTACCTCTTAATATGACGGAGTCACCTAGTGCAG”, the binding signal is 8340 fluorescence intensity (a.u.).
In the case of “ATTATTTCTTGCTGGATAGGTTCATGGTTTTGCCAAAATTCGGAGTCACCTAGTGCAG”, the binding signal is 10800 fluorescence intensity (a.u.).
Turning to “CAAGCACTTATACAAACTCAAAACCACAACTCTCTCGCATCGGAGTCACCTAGTGCAG”, the binding signal is 9090 fluorescence intensity (a.u.).
The same measure for “AGTTTTTCCCCTTTCAGGTCATGTGTTCATCAAGTCCTGTCGGAGTCACCTAGTGCAG”: 9310 fluorescence intensity (a.u.).
Consider “GTTTTAAGATCCAACTCTTTGACCAATAATATTCTTTTATCGGAGTCACCTAGTGCAG”, for which the binding signal was 9960 fluorescence intensity (a.u.).
As for “AAACCTGAAAACCCTCGCCGCTTCTCCCCGTCCTTCCTTTCGGAGTCACCTAGTGCAG”, the binding signal was 8160 fluorescence intensity (a.u.).
Regarding “ATCCTCTGACTTTGACTCATTCCCTCTATTTTGCGTCACTCGGAGTCACCTAGTGCAG”, the binding signal is 13700 fluorescence intensity (a.u.).
Consider “TTTAGCTGAGTCTGACAATTACTATCTCCGTTTCAAATTACGGAGTCACCTAGTGCAG”, for which the binding signal is 8710 fluorescence intensity (a.u.).
Regarding “GGGGCAGTTTTGTCAGATCAGAAGCGGTGGCAGAACGGTGCGGAGTCACCTAGTGCAG”, the binding signal is 8310 fluorescence intensity (a.u.).
For the sequence “GTCTCCTCGGGCCATTCTCTCGCCGGATTCGGATCCCGCGCGGAGTCACCTAGTGCAG”, the binding signal is 13200 fluorescence intensity (a.u.).
In the case of “ACAGGCCTCCATCCATCGATCAACAGTTTATTCAGCGCATCGGAGTCACCTAGTGCAG”, the binding signal was 9050 fluorescence intensity (a.u.).
For the sequence “AAGATCACCATCCATTGCCCAATTCGCCGTCGTCGTCTTCCGGAGTCACCTAGTGCAG”, the binding signal was 8320 fluorescence intensity (a.u.).
With “GCCTCAGCCTCTCCATCAGAGCTACGCAATCTTGTTTTCTCGGAGTCACCTAGTGCAG”, the binding signal was 8980 fluorescence intensity (a.u.).
Take “ATTATGTTCTTATGGGTTGTCTTACGGGTTGTGACTGCGCCGGAGTCACCTAGTGCAG”: the binding signal was 9560 fluorescence intensity (a.u.).
Regarding “AGTTATTGTTAAATCTTGGGCTGTGTTAAATGTTGGTTTTCGGAGTCACCTAGTGCAG”, the binding signal was 9720 fluorescence intensity (a.u.).
Regarding “CCACCAATCCACCACCGCCACGCCACTTCACCCTTGTTTTCGGAGTCACCTAGTGCAG”, the binding signal is 9810 fluorescence intensity (a.u.).
On to “TGTCCACCGCCACGAAATCCTGCAGACACACGGCACACTCCGGAGTCACCTAGTGCAG”, for which the binding signal was 12400 fluorescence intensity (a.u.).
For “GCACCGGCGCCACCGCCCGCGCCCGCACCACCGCCCACGCCGGAGTCACCTAGTGCAG”, the binding signal was 8870 fluorescence intensity (a.u.).
As to “GTGGTCACCCTAAGCCCTGGCTGCCTCCATCGCGGAGGTGCGGAGTCACCTAGTGCAG”, the binding signal was 8830 fluorescence intensity (a.u.).
Consider “CTTCCAACTAGATTAAGATGTTTGCTGACTGAGTTATTCACGGAGTCACCTAGTGCAG”, for which the binding signal was 8020 fluorescence intensity (a.u.).
With “ATTCCATCCACATACTTCTGCCCATTCGGAACCCACTAGGCGGAGTCACCTAGTGCAG”, the binding signal is 8680 fluorescence intensity (a.u.).
In the case of “CGTATCATTGCCATCTACTGGCCCCATCCTACTACTACTCCGGAGTCACCTAGTGCAG”, the binding signal was 8430 fluorescence intensity (a.u.).
For the sequence “AAGAAGGGGAGTGGATTGTATAGGGGTGGATGGGGATCGACGGAGTCACCTAGTGCAG”, the binding signal is 13400 fluorescence intensity (a.u.).
On to “GTCATGTCACTATGCATCTCACACTTCTCTCTCCATCCCCCGGAGTCACCTAGTGCAG”, for which the binding signal was 8810 fluorescence intensity (a.u.).
For “ACCATTCCATTCCATTCGATCCATTCTAGCTAGCTTATCTCGGAGTCACCTAGTGCAG”, the binding signal was 9610 fluorescence intensity (a.u.).
In the case of “GCCGTCCCTTTCGGTTTCATCATCGATCGGTTTCATCCACCGGAGTCACCTAGTGCAG”, the binding signal was 8180 fluorescence intensity (a.u.).
With “CTCCACCGCAACGTCCACCTCGGCGAGATCGCCGGCGAGCCGGAGTCACCTAGTGCAG”, the binding signal was 9710 fluorescence intensity (a.u.).
On to “CTTTTCCGTTTTGGTTTCTATCTCTCAGTCCGTCTGTGTACGGAGTCACCTAGTGCAG”, for which the binding signal is 12100 fluorescence intensity (a.u.).
The figure for “ACCACTGCCTCTCTGCTCCGGCTCTCCGCCTCTCCTGACTCGGAGTCACCTAGTGCAG” is 10300 fluorescence intensity (a.u.); for “TTTTGCTTCACTAAAATTTGAAGTGTCCTTGTCCAACAATCGGAGTCACCTAGTGCAG” it is 8460 fluorescence intensity (a.u.).
In the case of “CCAGGAATTTGGATCCACTTGAGTTTAATTAATTAATTTCCGGAGTCACCTAGTGCAG”, the binding signal is 8900 fluorescence intensity (a.u.).
The same measure for “GGAGGGTGCGACAGCCCAATGTATCACTTGCGTTTGTATCCGGAGTCACCTAGTGCAG”: 8230 fluorescence intensity (a.u.).
Take “GATGTTCTATTAGTCCCGTCACTTTTGCTTTTTTTCTTTCCGGAGTCACCTAGTGCAG”: the binding signal is 8530 fluorescence intensity (a.u.).
For “TATTGTCTAATTGGCATAGCTGCCAATCTGTTATTGCTCACGGAGTCACCTAGTGCAG”, the binding signal is 8660 fluorescence intensity (a.u.).
As for “CATGCGTTCCTGTGGTCTGGGGAGGATTCTTGTCATGGCTCGGAGTCACCTAGTGCAG”, the binding signal was 13000 fluorescence intensity (a.u.).
In the case of “ATTATCCTTAACGAATTAGTTAGTTACGTCTTCGTACGTTCGGAGTCACCTAGTGCAG”, the binding signal is 8190 fluorescence intensity (a.u.).

The values above are taken from PMC7819943, “Rice protein-binding microarrays: a tool to detect cis-acting elements near promoter regions in rice”.
